# Library screening results

Protein sequences, listed by entry. Tags and fused reporters are not part of them.
UniProt E9BF75, entry or part of it: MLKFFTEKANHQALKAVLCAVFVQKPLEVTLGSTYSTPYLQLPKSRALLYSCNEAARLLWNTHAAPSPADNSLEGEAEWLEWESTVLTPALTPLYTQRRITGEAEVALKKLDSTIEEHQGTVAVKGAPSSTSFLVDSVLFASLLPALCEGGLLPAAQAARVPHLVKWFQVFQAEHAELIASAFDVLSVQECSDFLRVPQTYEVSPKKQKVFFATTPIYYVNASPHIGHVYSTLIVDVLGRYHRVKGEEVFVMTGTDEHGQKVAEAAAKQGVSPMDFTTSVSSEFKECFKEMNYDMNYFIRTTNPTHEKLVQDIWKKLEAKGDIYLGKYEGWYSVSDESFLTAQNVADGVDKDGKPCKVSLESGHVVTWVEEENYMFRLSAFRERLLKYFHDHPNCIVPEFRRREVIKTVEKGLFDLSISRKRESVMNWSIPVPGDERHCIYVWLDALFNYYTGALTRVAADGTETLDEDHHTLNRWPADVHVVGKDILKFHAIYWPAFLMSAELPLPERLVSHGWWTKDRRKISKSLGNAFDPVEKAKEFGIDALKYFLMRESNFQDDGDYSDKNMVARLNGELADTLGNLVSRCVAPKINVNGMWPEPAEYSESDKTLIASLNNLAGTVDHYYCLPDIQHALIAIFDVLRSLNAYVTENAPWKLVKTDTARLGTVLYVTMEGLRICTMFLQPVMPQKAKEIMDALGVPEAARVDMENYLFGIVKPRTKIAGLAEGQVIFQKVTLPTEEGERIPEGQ

Results are percentages, as filed.
The controls that fix the scale are not given in the record; negative values are as filed.
The compounds are a random part of those screened.
A dash means the value is not listed here; it may have been measured.

LdMetRS: 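Primary screen of methionyl-tRNA synthetase; the read-out is not stated. Target: Methionyl-tRNA synthetase (putative), Leishmania donovani (UniProt E9BF75). The test concentration is not given. The values are filed as inhibition. About 68,000 compounds were tested under these conditions; 0.035% (about 24) showed 50% or more at least once.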
Mtb heat-shock: 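Assay on Mycobacterium tuberculosis, filed only as a heat shock assay from Cornell; the read-out is not stated. The concentration is filed as 10 mM, unlikely as a test dose, so the dose is not known. The record gives no direction; compounds that gave an IC50 in retests scored well above the rest, so higher reads as stronger inhibition. Of about 69,000 compounds tested this way, about 930 (1.4%) reached 50% or more in at least one test.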

| # | SMILES | LdMetRS | Mtb heat-shock |
|---|---|---|---|
| 1 | `CS(=O)(=O)NCc1nnc2n1CCN(Cc1ccncc1)C2` | 4.975% | -29.7% |
| 2 | `COc1cccc(CN2CCC(O)(c3ccc(C)cn3)CC2)c1OC` | -7.216% | -25.3% |
| 3 | `CN(CC1CCCCO1)C(=O)c1ccnc(OC2CCC2)c1` (stereo not shown) | 6.884% | 12.53% |
| 4 | `Cc1nc2cc(-c3nccn3C)nn2c(N2CCC(O)CC2)c1C.Cl` | - | 0.7953% |
| 5 | `CC(C)N(C)Cc1cc(=O)n2c(n1)CN(S(=O)(=O)C1CC1)CCC2` | 11.54% | - |
| 6 | `O=C([C@H]1C[C@@H]2CCN(C3CCOCC3)C[C@@H]2O1)N1CCOCC1` | 10.46% | - |
| 7 | `CC(=O)N(c1ccc(C)cc1)c1nc(CN2CCCCC2C)cs1` (stereo not shown) | 8.333% | -32.09% |
| 8 | `Cc1ccc(C2COCCN2C(=O)c2ccc(C)s2)o1` (stereo not shown) | 12.2% | -24.32% |
| 9 | `Cc1ccc(S(C)(=O)=O)cc1C(=O)NS(=O)(=O)c1cccs1` | 13.35% | 8.374% |
| 10 | `COc1ccc(CNCC2CCN(CCO)CC2)cc1F` | 9.89% | 0.1466% |
| 11 | `Cc1ccc(N2CCc3sc(C(=O)N4CCOCC4)cc32)nn1` | 8.629% | -47.06% |
| 12 | `CC(C)Oc1ncnc2c1CCN(Cc1ccc(F)cc1)CC2` | 10.1% | - |
| 13 | `CC(C)c1nc(CC(=O)N(C)Cc2ccc3c(c2)OCO3)cs1` | 15.03% | 19.37% |
| 14 | `CN(C)S(=O)(=O)c1ccc(CN2CCC(c3ccccc3)C2)o1` (stereo not shown) | 5.797% | 1.116% |
| 15 | `Cc1noc(C)c1CN(C)C(=O)Cn1c(=O)n(C)c2ccccc21` | 14.93% | 17.99% |
| 16 | `Cc1ccc(-c2ccnc(NC(C)c3ncc[nH]3)n2)c(C)n1` (stereo not shown) | 9.091% | -11.82% |
| 17 | `NCC1(c2cccc(C(F)(F)F)c2)CCCCC1` | - | -10.91% |
| 18 | `Cc1cccnc1CC(C)N(C)Cc1cccs1` (stereo not shown) | 11.78% | -16.6% |
| 19 | `Cc1cc(C[C@@H]2CCC[C@H]2NCc2cccc(F)c2F)on1` | 7.765% | - |
| 20 | `CNC(=O)c1nc2c(s1)CCN(C(=O)c1cccnc1)CC2` | 7.95% | - |
| 21 | `NC(=O)CN(C(=O)Cc1cccc(C(F)(F)F)c1)C1CCCC1` | 8.659% | 12.27% |
| 22 | `CCOCC(O)CN1CCN(C(=O)c2cccc(OC)c2)CC1` (stereo not shown) | 21.59% | 5.225% |
| 23 | `CC(C)c1noc(CCC(=O)NC(C)c2nnc3n2CCCCC3)n1` (stereo not shown) | 9.294% | -5.104% |
| 24 | `O=C(Nc1ccccc1)c1cccc(S(=O)(=O)NC[C@@H]2C[C@H](F)CN2)c1` | 7.904% | -19.2% |
| 25 | `CCCc1nc(NCCCn2ccnc2)c2c(n1)c(C)nn2CC` | 25.38% | 11.39% |
| 26 | `Cc1ccc(-c2nc(CN3CCCC3Cn3cncn3)cs2)o1` (stereo not shown) | 22.25% | -3.4% |
| 27 | `CCC[C@@H]1CN(C(=O)c2cc(-c3cccs3)n(C)n2)C[C@H]1N(C)C` | 18.92% | 24.64% |
| 28 | `CS(=O)(=O)NC[C@]12COC[C@H]1CN(CC1CCCC1)C2` | 15.15% | - |
| 29 | `O=C1CC[C@@H](CN(Cc2ccncc2)Cc2nc(CC3CC3)no2)N1` | 6.65% | -1.681% |
| 30 | `O=C1NC2(Cc3ccccc31)CN(CC1CCOCC1)C2` | 2.857% | -41.59% |
| 31 | `CS(=O)(=O)N1CCOCC2(CN(Cc3ccc(F)cc3)CCO2)C1.O=C(O)C(F)(F)F` (stereo not shown) | - | -23.13% |
| 32 | `COc1cccc(NC(=O)CCCc2nc(C(C)C)no2)c1` | 3.655% | 4.858% |
| 33 | `O=C(Nc1cccc(F)c1)NC1CCN(Cc2ccncc2)CC1` | 14.29% | -8.889% |
| 34 | `CN1CCN(Cc2cnc(S(=O)(=O)CC3CC3)n2CC2CCCO2)CC1` (stereo not shown) | 12.36% | 2.659% |
| 35 | `[H][C@]12CC[C@]([H])(CN(c3ncccn3)C1)N(C(=O)c1cc(C(C)C)oc1C)C2` | - | -2.28% |
| 36 | `CN(CC(F)(F)F)C(=O)CNC(=O)Cc1ccccc1O` | 14.21% | -6.616% |
| 37 | `Cc1ccc(S(C)(=O)=O)cc1C(=O)NS(C)(=O)=O` | 13.35% | 29.75% |
| 38 | `CC(NCCCC#N)c1ccc(-c2ccncc2)cc1` (stereo not shown) | 13.98% | -6.016% |
| 39 | `Cc1nc(CC(=O)N2CCN(Cc3ccc(C#N)cc3)CC2)cs1` | 7.311% | -8.933% |
| 40 | `Cc1noc(C2CCN(C(=O)c3cc(Cl)c(Cl)n3C)CC2)n1` | 7.013% | -4.702% |
| 41 | `O=S(=O)(C1CC1)N1C[C@H](Oc2ccccn2)[C@H]2OCCC[C@H]21` | 9.22% | - |
| 42 | `CC(C)(C)CC(=O)N1CC[C@@H]2[C@H](CC1)N(S(C)(=O)=O)CCS2(=O)=O` | 15.24% | - |

Once more, the final 4:

* Cc1nc(CC(=O)N2CCN(Cc3ccc(C#N)cc3)CC2)cs1 : LdMetRS: 7.311%; Mtb heat-shock: -8.933%
* Cc1noc(C2CCN(C(=O)c3cc(Cl)c(Cl)n3C)CC2)n1 : LdMetRS: 7.013%; Mtb heat-shock: -4.702%
* O=S(=O)(C1CC1)N1C[C@H](Oc2ccccn2)[C@H]2OCCC[C@H]21 : LdMetRS: 9.22%
* CC(C)(C)CC(=O)N1CC[C@@H]2[C@H](CC1)N(S(C)(=O)=O)CCS2(=O)=O : LdMetRS: 15.24%

The values are deposited in ChEMBL (CHEMBL3988442, “University of Dundee, Small-Polar-MMV Screening Library” (2021)).